Experimental data from patent US6894050B2, “5-HT receptor ligands and uses thereof” (Pfizer Inc., priority 2001, dated 2005).
Counter-ions that a name gives are not always drawn. Some entries share one result that the patent states for a list of compounds.

Each molecule was assayed against T1, 5-HT2c receptor (5-HT2c expressed NIH 3T3 cells) (UniProt P28335) (assay: Functional Assay (FLIPR calcium fluorescence, Fluo 4-AM)).
T1 sequence (P28335 1-458): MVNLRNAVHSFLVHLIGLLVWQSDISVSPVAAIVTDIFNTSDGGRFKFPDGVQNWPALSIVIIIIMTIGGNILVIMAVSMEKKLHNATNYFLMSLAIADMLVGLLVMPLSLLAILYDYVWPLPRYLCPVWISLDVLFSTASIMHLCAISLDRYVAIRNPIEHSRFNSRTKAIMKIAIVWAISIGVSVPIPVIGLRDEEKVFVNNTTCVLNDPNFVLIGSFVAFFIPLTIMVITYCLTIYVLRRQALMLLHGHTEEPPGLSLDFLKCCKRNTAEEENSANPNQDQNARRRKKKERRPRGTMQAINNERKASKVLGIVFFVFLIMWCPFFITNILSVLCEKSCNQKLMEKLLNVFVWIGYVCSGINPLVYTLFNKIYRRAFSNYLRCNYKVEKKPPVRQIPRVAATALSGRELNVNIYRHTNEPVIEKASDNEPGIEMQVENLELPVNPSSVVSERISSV
Format: cell-based
Method: […] Forty eight (48) hrs later the cells were loaded with the calcium sensitive dye, Fluo 4-AM (4 μM dissolved in DMSO containing pluronic acid) in serum free DMEM in the presence of probenicid (2.5 mM) for 75 minutes at 37° C. in a CO2 incubator. Unincorporated dye was removed by washing 3 times with a HEPES-buffered saline containing probenicid (2.5 mM) using a Skatron™ cell washer (final volume 30 μL).
Test compound additions were made simultaneously to all 384 wells after 20 seconds of baseline recording. Concentration-response curves were generated using Graphpad Prism™ (available from GraphPad Software, Inc., San Diego, Calif.) and agonist efficacies were generated as % of the response to 10 μM 5-HT (considered as 100%).

| SMILES | EC50 |
| --- | --- |
| Cc1ccc(C)c(COc2cncc(N3CCNCC3)n2)c1 [Example 1-AB, 6′-(2,5-Dimethyl-benzyloxy)-3,4,5,6-tetrahydro-2H-[1,2′]bipyrazinyl] | > 1000 nM |
| C[C@@H]1CNCCN1c1cncc(OCc2ccccc2Cl)n1 [Example 1-AG, 6′-(2-Chloro-benzyloxy)-(2R)-methyl-3,4,5,6-tetrahydro-2H-[1,2′]bipyrazinyl] | ≤ 1000 nM |
| C[C@@H]1CNCCN1c1cncc(OCc2cccc(F)c2)n1 [Example 1-AI, 6′-(3-Fluoro-benzyloxy)-(2R)-methyl-3,4,5,6-tetrahydro-2H-[1,2′]bipyrazinyl] | ≤ 1000 nM |
| C[C@@H]1CNCCN1c1cncc(OCc2cc(Cl)ccc2Cl)n1 [Example 1-AJ, 6′-(2,5-Dichloro-benzyloxy)-(2R)-methyl-3,4,5,6-tetrahydro-2H-[1,2′]bipyrazinyl] | > 1000 nM |
| C[C@H]1CN(c2cncc(OCc3cccc(Cl)c3)n2)CCN1 [Example 1-AK, 6′-(3-Chloro-benzyloxy)-(3S)-methyl-3,4,5,6-tetrahydro-2H-[1,2′]bipyrazinyl] | ≤ 1000 nM |
| C[C@H]1CN(c2cncc(OCc3cccc(F)c3)n2)CCN1 [Example 1-AL, 6′-(3-Fluoro-benzyloxy)-(3S)-methyl-3,4,5,6-tetrahydro-2H-[1,2′]bipyrazinyl] | > 1000 nM |
| FC(F)(F)Oc1cccc(COc2cncc(N3CCNCC3)n2)c1 [Example 1-E, 6′-(3-Trifluoromethoxy-benzyloxy)-3,4,5,6-tetrahydro-2H-[1,2′]bipyrazinyl] | > 1000 nM |
| FC(F)(F)c1cccc(COc2cncc(N3CCNCC3)n2)c1 [Example 1-F, 6′-(3-Trifluoromethyl-benzyloxy)-3,4,5,6-tetrahydro-2H-[1,2′]bipyrazinyl] | > 1000 nM |
| C[C@H]1CNCCN1c1cncc(OCc2cccc(Cl)c2)n1 [Example 1-K, 6′-(3-Chloro-benzyloxy)-(2S)-methyl-3,4,5,6-tetrahydro-2H-[1,2′]bipyrazinyl] | > 1000 nM |
| C[C@@H]1CNCCN1c1cncc(OCc2cccc(Cl)c2)n1 [Example 1-L, 6′-(3-Chloro-benzyloxy)-(2R)-methyl-3,4,5,6-tetrahydro-2H-[1,2′]bipyrazinyl] | ≤ 1000 nM |
| Fc1ccc(F)c(COc2cncc(N3CCNCC3)n2)c1 [Example 1-M, 6′-(2,5-Difluoro-benzyloxy)-3,4,5,6-tetrahydro-2H-[1,2′]bipyrazinyl] | ≤ 1000 nM |
| Fc1cc(F)cc(COc2cncc(N3CCNCC3)n2)c1 [Example 1-O, 6′-(3,5-Difluoro-benzyloxy)-3,4,5,6-tetrahydro-2H-[1,2′]bipyrazinyl] | ≤ 1000 nM |
| FC(F)(F)c1ccccc1COc1cncc(N2CCNCC2)n1 [Example 1-P, 6′-(2-Trifluoromethyl-benzyloxy)-3,4,5,6-tetrahydro-2H-[1,2′]bipyrazinyl] | ≤ 1000 nM |
| FC(F)(F)Oc1ccccc1COc1cncc(N2CCNCC2)n1 [Example 1-Q, 6′-(2-Trifluoromethoxy-benzyloxy)-3,4,5,6-tetrahydro-2H-[1,2′]bipyrazinyl] | > 1000 nM |
| Fc1ccc(COc2cncc(N3CCNCC3)n2)cc1 [Example 1-S, 6′-(4-Fluoro-benzyloxy)-3,4,5,6-tetrahydro-2H-[1,2′]bipyrazinyl] | > 1000 nM |
| Fc1cc(COc2cncc(N3CCNCC3)n2)cc(C(F)(F)F)c1 [Example 1-X, 6′-(3-Fluoro-5-trifluoromethyl-benzyloxy)-3,4,5,6-tetrahydro-2H-[1,2′]bipyrazinyl] | > 1000 nM |
| Clc1cccc(CNc2cncc(N3CCNCC3)n2)c1 [Example 2-A, (3-Chloro-benzyl)-(3,4,5,6-tetrahydro-2H-[1,2′]bipyrazinyl-6′-yl)-amine] | ≤ 1000 nM |
| Fc1cccc(CNc2cncc(N3CCNCC3)n2)c1 [Example 4-A, (3-Fluoro-benzyl)-(3,4,5,6-tetrahydro-2H-[1,2′]bipyrazinyl-6′-yl)-amine] | ≤ 1000 nM |
| Fc1ccccc1CNc1cncc(N2CCNCC2)n1 [Example 4-B, (2-Fluoro-benzyl)-(3,4,5,6-tetrahydro-2H-[1,2′]bipyrazinyl-6′-yl)-amine hydrochloride salt] | ≤ 1000 nM |
| CC(=O)N(Cc1cccc(Cl)c1)c1cncc(N2CCNCC2)n1 [Example 5-A, N-(3-Chloro-benzyl)-N-(3,4,5,6-tetrahydro-2H-[1,2′]bipyrazinyl-6′-yl)-acetamide] | ≤ 1000 nM |
